# The other results are listed elsewhere or left out.
# Tests used:
# Assay in all cases: glycan array binding signal (z-score within array); higher = stronger binding
# Conditions in all cases: glycan notation: IUPAC condensed, linker removed
# Gal6S(b1-4)Glc = molecular target: Gal6S(b1-4)Glc
# Method in brief: (§1)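 Arrays were curated from the Consortium for Functional Glycomics database, 3228 in total, and kept only where the protein sequence was available. Binding is expressed as a within-array Z-score. This score was averaged across arrays of the same protein sequence at different concentrations or buffers and across linkers, and negative values can be read as non-binding.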
# Gal6S(b1-4)Glc6S = molecular target: Gal6S(b1-4)Glc6S
# Method in brief: as §1
# Gal6S(b1-4)GlcNAc = molecular target: Gal6S(b1-4)GlcNAc
# Method in brief: as §1
# Gal6S(b1-4)GlcNAc6S = molecular target: Gal6S(b1-4)GlcNAc6S
# Method in brief: as §1
# GalNAc(a1-3)Gal = molecular target: GalNAc(a1-3)Gal
# Method in brief: as §1
# GalNAc(a1-3)GalNAc = molecular target: GalNAc(a1-3)GalNAc
# Method in brief: as §1
# [1] = molecular target: GalNAc(a1-3)GalNAc(b1-3)Gal(a1-4)Gal(b1-4)Glc
# Method in brief: as §1
# [2] = molecular target: GalNAc(a1-3)GalNAc(b1-3)Gal(a1-4)Gal(b1-4)GlcNAc
# Method in brief: as §1
# GalNAc(b1-3)Gal = molecular target: GalNAc(b1-3)Gal
# Method in brief: as §1
# [3] = molecular target: GalNAc(b1-3)Gal(a1-4)Gal(b1-4)GlcNAc
# Method in brief: as §1
# [4] = molecular target: GalNAc(b1-3)Gal(a1-4)Gal(b1-4)GlcNAc(b1-3)Gal(b1-4)Glc
# Method in brief: as §1
# [5] = molecular target: GalNAc(b1-3)Gal(a1-6)Gal(b1-4)Glc
# Method in brief: as §1
# GalNAc(b1-3)GalNAc = molecular target: GalNAc(b1-3)GalNAc
# Method in brief: as §1
# GalNAc(b1-3)GlcNAc = molecular target: GalNAc(b1-3)GlcNAc
# Method in brief: as §1
# GalNAc(b1-4)Gal(b1-4)Glc = molecular target: GalNAc(b1-4)Gal(b1-4)Glc
# Method in brief: as §1
# GalNAc(b1-4)GlcNAc = molecular target: GalNAc(b1-4)GlcNAc
# Method in brief: as §1
# [6] = molecular target: GalNAc(b1-4)GlcNAc(b1-2)Man
# Method in brief: as §1
# [7] = molecular target: GalNAc(b1-4)GlcNAc(b1-2)Man(a1-3)[GalNAc(b1-4)GlcNAc(b1-2)Man(a1-6)]Man(b1-4)GlcNAc(b1-4)GlcNAc
# Method in brief: as §1
# [8] = molecular target: GalNAc(b1-4)GlcNAc(b1-3)GalNAc(b1-4)GlcNAc
# Method in brief: as §1
# GalNAc(b1-4)GlcNAc6S = molecular target: GalNAc(b1-4)GlcNAc6S
# Method in brief: as §1
# GalNAc(b1-6)GalNAc = molecular target: GalNAc(b1-6)GalNAc
# Method in brief: as §1
# GalNAc3S(b1-4)GlcNAc = molecular target: GalNAc3S(b1-4)GlcNAc
# Method in brief: as §1
# GalNAc3S(b1-4)GlcNAc3S = molecular target: GalNAc3S(b1-4)GlcNAc3S
# Method in brief: as §1
# [9] = molecular target: GalNAc3S(b1-4)[Fuc(a1-3)]GlcNAc
# Method in brief: as §1
# GalNAc4S6S(b1-4)GlcNAc = molecular target: GalNAc4S6S(b1-4)GlcNAc
# Method in brief: as §1
# GalNAc6S(b1-4)GlcNAc = molecular target: GalNAc6S(b1-4)GlcNAc
# Method in brief: as §1
# Glc(a1-4)Glc = molecular target: Glc(a1-4)Glc
# Method in brief: as §1
# [10] = molecular target: Glc(a1-4)Glc(a1-4)Glc(a1-4)Glc
# Method in brief: as §1
# Glc(a1-6)Glc(a1-6)Glc = molecular target: Glc(a1-6)Glc(a1-6)Glc
# Method in brief: as §1
# [11] = molecular target: Glc(a1-6)Glc(a1-6)Glc(a1-6)Glc
# Method in brief: as §1
# Glc(b1-4)Glc = molecular target: Glc(b1-4)Glc
# Method in brief: as §1
# Glc(b1-6)Glc = molecular target: Glc(b1-6)Glc
# Method in brief: as §1
# GlcA(b1-3)Gal = molecular target: GlcA(b1-3)Gal
# Method in brief: as §1
# GlcA(b1-3)GlcNAc = molecular target: GlcA(b1-3)GlcNAc
# Method in brief: as §1
# GlcA(b1-6)Gal = molecular target: GlcA(b1-6)Gal
# Method in brief: as §1
# [12] = molecular target: GlcA3S(b1-3)Gal(b1-4)GlcNAc(b1-2)Man
# Method in brief: as §1
# [13] = molecular target: GlcA3S(b1-3)Gal(b1-4)GlcNAc(b1-3)Gal(b1-4)Glc
# Method in brief: as §1
# [14] = molecular target: GlcNAc(a1-3)Gal(b1-4)GlcNAc
# Method in brief: as §1
# [15] = molecular target: GlcNAc(a1-4)Gal(b1-3)GlcNAc
# Method in brief: as §1
# [16] = molecular target: GlcNAc(a1-4)Gal(b1-4)GalNAc
# Method in brief: as §1
# [17] = molecular target: GlcNAc(a1-4)Gal(b1-4)GlcNAc
# Method in brief: as §1
# [18] = molecular target: GlcNAc(a1-4)Gal(b1-4)GlcNAc(b1-3)Gal(b1-4)Glc
# Method in brief: as §1
# [19] = molecular target: GlcNAc(a1-4)Gal(b1-4)GlcNAc(b1-3)Gal(b1-4)GlcNAc
# Method in brief: as §1
# [20] = molecular target: GlcNAc(a1-4)Gal(b1-4)GlcNAc(b1-3)Gal(b1-4)GlcNAc(b1-3)Gal(b1-4)GlcNAc
# Method in brief: as §1
# [21] = molecular target: GlcNAc(a1-4)Gal(b1-4)GlcNAc(b1-3)Gal(b1-4)[Fuc(a1-3)]GlcNAc(b1-3)Gal(b1-4)[Fuc(a1-3)]GlcNAc
# Method in brief: as §1
binder,measurement,setting,value
"XTP3-B-MRH1 (Homo sapiens), Q96DZ1 (protein) LLEPLFKQSSCSYRIESYWTYEVCHGKHIRQYHEEKETGQKINIHEYYLGNMLAKNLLFEKEREAEEKEKSNEIPTKNIEGQMTPYYPVGMGNGTPCSLKQNRPRSSTVMYICHPESKHEILSVAEVTTCEYEVVILTPLLCSHPKYRFRA",glycan array binding signal (z-score),Gal6S(b1-4)Glc,0.558
same,glycan array binding signal (z-score),Gal6S(b1-4)Glc6S,-1.5
same,glycan array binding signal (z-score),Gal6S(b1-4)GlcNAc,1.69
same,glycan array binding signal (z-score),Gal6S(b1-4)GlcNAc6S,0.232
same,glycan array binding signal (z-score),GalNAc(a1-3)Gal,-0.724
same,glycan array binding signal (z-score),GalNAc(a1-3)GalNAc,3.12
same,glycan array binding signal (z-score),[1],-0.463
same,glycan array binding signal (z-score),[2],-0.927
same,glycan array binding signal (z-score),GalNAc(b1-3)Gal,-0.437
same,glycan array binding signal (z-score),[3],1.06
same,glycan array binding signal (z-score),[4],-1.02
same,glycan array binding signal (z-score),[5],0.096
same,glycan array binding signal (z-score),GalNAc(b1-3)GalNAc,1.22
same,glycan array binding signal (z-score),GalNAc(b1-3)GlcNAc,-0.925
same,glycan array binding signal (z-score),GalNAc(b1-4)Gal(b1-4)Glc,-0.25
same,glycan array binding signal (z-score),GalNAc(b1-4)GlcNAc,0.047
same,glycan array binding signal (z-score),[6],0.486
same,glycan array binding signal (z-score),[7],1.34
same,glycan array binding signal (z-score),[8],-0.607
same,glycan array binding signal (z-score),GalNAc(b1-4)GlcNAc6S,-0.537
same,glycan array binding signal (z-score),GalNAc(b1-6)GalNAc,-1.91
same,glycan array binding signal (z-score),GalNAc3S(b1-4)GlcNAc,-0.602
same,glycan array binding signal (z-score),GalNAc3S(b1-4)GlcNAc3S,3.07
same,glycan array binding signal (z-score),[9],0.269
same,glycan array binding signal (z-score),GalNAc4S6S(b1-4)GlcNAc,-0.682
same,glycan array binding signal (z-score),GalNAc6S(b1-4)GlcNAc,0.29
same,glycan array binding signal (z-score),Glc(a1-4)Glc,-0.398
same,glycan array binding signal (z-score),[10],-0.669
same,glycan array binding signal (z-score),Glc(a1-6)Glc(a1-6)Glc,-0.837
same,glycan array binding signal (z-score),[11],-0.891
same,glycan array binding signal (z-score),Glc(b1-4)Glc,-0.349
same,glycan array binding signal (z-score),Glc(b1-6)Glc,-1.1
same,glycan array binding signal (z-score),GlcA(b1-3)Gal,0.324
same,glycan array binding signal (z-score),GlcA(b1-3)GlcNAc,-0.414
same,glycan array binding signal (z-score),GlcA(b1-6)Gal,0.841
same,glycan array binding signal (z-score),[12],-0.014
same,glycan array binding signal (z-score),[13],-0.47
same,glycan array binding signal (z-score),[14],0.433
same,glycan array binding signal (z-score),[15],-0.631
same,glycan array binding signal (z-score),[16],-0.588
same,glycan array binding signal (z-score),[17],-0.401
same,glycan array binding signal (z-score),[18],-0.158
same,glycan array binding signal (z-score),[19],-0.549
same,glycan array binding signal (z-score),[20],0.916
same,glycan array binding signal (z-score),[21],1.52

# — the supplement of paper PMC8728848
